According to patent EP1662255A2:
Changes are numbered by the printed parent chain. These are yes or no findings as the source states them, for the method shown. In cells and extracts the contact can be indirect. Some entries that bind do so weakly or less than the wild type. Blank lines part the entries; values can stand above or below the binder they belong to.

Protein sequences, listed by entry. Tags and fused reporters are not part of them. Residues count along the entry.
UniProt P29994: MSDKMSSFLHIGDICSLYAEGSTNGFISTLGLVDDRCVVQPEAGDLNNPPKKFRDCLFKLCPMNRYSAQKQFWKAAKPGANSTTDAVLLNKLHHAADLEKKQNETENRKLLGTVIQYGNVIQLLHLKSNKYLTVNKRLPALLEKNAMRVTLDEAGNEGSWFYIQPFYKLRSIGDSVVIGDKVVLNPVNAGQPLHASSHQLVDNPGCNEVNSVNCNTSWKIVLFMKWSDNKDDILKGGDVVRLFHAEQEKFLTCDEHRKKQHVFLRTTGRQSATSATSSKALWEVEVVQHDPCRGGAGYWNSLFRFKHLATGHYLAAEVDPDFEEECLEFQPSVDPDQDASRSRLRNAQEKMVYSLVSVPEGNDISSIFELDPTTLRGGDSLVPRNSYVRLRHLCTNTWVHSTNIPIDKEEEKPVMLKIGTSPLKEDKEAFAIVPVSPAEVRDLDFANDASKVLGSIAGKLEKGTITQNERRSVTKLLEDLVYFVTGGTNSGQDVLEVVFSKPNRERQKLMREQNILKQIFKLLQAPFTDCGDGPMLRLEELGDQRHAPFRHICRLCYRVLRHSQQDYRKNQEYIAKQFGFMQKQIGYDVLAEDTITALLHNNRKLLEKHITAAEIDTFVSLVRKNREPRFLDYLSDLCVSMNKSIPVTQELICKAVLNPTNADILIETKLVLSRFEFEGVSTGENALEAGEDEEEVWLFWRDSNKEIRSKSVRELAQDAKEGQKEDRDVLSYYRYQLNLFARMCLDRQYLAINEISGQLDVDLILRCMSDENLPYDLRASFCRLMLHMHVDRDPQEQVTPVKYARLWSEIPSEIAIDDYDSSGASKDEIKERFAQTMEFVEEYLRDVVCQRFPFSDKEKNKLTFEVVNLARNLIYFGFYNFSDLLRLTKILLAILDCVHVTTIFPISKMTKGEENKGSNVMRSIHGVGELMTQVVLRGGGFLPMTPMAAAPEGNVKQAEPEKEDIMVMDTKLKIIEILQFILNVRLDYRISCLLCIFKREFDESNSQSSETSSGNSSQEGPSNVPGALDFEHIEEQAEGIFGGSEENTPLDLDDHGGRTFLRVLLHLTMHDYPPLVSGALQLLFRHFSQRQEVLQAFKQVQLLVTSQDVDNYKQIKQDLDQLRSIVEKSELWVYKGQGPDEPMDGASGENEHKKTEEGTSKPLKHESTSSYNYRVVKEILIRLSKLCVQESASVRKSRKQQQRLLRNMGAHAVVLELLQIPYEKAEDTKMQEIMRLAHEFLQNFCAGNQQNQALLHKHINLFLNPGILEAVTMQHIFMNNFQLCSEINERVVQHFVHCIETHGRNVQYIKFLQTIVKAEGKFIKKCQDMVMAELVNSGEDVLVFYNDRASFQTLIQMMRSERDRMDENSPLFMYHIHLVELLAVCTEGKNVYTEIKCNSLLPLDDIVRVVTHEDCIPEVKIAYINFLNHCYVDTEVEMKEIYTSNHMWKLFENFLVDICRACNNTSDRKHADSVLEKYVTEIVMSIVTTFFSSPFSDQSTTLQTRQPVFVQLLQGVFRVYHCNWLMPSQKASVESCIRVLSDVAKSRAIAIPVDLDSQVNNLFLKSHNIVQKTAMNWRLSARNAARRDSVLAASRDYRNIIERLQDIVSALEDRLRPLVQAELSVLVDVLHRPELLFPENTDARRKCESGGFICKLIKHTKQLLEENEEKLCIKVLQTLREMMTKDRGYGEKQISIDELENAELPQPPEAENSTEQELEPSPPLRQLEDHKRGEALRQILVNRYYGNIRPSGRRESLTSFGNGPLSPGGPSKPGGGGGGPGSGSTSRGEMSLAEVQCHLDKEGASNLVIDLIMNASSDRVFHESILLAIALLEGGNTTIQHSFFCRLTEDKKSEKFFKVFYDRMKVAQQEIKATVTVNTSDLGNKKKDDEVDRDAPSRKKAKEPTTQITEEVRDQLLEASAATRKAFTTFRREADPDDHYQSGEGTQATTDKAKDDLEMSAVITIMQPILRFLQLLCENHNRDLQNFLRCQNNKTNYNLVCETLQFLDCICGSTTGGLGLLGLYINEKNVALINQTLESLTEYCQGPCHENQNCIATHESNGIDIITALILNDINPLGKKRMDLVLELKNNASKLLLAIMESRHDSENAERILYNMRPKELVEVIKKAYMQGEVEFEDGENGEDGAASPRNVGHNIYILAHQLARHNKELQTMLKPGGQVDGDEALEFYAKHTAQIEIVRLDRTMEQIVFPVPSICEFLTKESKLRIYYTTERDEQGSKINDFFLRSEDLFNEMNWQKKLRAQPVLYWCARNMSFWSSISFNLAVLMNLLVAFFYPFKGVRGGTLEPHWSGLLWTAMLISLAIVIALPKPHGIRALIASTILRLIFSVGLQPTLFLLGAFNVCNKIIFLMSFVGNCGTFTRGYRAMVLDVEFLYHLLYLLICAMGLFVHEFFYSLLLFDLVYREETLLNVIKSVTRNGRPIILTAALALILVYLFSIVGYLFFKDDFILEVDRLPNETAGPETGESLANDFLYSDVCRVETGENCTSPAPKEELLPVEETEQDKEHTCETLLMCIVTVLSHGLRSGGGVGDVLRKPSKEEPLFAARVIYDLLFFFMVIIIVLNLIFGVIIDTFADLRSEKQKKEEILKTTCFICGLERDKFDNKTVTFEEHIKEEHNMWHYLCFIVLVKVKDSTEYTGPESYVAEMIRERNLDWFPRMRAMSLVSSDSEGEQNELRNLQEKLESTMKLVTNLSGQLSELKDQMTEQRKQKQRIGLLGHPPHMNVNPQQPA
UniProt P23385, residues 19-1199: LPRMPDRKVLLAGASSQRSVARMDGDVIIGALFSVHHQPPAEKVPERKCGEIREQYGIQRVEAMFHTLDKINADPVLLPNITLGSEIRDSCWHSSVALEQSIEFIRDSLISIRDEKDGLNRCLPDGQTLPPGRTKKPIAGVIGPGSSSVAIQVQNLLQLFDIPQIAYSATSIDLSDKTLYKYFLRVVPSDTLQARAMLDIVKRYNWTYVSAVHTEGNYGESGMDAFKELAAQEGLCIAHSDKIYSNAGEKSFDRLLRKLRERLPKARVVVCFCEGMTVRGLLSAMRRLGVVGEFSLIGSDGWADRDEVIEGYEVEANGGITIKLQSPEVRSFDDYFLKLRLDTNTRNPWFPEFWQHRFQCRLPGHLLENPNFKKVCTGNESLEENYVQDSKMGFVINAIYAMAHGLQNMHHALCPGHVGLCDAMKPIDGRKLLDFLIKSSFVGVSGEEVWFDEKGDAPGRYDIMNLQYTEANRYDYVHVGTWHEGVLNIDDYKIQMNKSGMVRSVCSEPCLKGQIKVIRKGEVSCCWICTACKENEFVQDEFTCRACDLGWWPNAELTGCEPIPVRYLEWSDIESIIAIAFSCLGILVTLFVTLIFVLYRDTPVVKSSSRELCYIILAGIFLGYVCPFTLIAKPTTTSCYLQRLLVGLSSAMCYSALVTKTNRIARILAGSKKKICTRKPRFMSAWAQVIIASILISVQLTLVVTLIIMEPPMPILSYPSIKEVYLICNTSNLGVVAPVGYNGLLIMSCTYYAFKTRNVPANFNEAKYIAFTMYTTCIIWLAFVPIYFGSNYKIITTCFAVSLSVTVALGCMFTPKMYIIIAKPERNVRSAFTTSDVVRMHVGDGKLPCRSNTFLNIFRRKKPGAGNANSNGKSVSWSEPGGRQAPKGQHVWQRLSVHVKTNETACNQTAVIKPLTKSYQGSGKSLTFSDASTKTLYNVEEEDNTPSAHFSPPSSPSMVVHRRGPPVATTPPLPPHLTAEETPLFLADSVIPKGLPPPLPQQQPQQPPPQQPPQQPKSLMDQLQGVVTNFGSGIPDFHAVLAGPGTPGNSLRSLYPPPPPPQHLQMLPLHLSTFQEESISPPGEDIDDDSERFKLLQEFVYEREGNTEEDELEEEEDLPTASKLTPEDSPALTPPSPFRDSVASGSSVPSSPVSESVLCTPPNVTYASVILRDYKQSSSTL
UniProt Q3UVX5, residues 19-1203: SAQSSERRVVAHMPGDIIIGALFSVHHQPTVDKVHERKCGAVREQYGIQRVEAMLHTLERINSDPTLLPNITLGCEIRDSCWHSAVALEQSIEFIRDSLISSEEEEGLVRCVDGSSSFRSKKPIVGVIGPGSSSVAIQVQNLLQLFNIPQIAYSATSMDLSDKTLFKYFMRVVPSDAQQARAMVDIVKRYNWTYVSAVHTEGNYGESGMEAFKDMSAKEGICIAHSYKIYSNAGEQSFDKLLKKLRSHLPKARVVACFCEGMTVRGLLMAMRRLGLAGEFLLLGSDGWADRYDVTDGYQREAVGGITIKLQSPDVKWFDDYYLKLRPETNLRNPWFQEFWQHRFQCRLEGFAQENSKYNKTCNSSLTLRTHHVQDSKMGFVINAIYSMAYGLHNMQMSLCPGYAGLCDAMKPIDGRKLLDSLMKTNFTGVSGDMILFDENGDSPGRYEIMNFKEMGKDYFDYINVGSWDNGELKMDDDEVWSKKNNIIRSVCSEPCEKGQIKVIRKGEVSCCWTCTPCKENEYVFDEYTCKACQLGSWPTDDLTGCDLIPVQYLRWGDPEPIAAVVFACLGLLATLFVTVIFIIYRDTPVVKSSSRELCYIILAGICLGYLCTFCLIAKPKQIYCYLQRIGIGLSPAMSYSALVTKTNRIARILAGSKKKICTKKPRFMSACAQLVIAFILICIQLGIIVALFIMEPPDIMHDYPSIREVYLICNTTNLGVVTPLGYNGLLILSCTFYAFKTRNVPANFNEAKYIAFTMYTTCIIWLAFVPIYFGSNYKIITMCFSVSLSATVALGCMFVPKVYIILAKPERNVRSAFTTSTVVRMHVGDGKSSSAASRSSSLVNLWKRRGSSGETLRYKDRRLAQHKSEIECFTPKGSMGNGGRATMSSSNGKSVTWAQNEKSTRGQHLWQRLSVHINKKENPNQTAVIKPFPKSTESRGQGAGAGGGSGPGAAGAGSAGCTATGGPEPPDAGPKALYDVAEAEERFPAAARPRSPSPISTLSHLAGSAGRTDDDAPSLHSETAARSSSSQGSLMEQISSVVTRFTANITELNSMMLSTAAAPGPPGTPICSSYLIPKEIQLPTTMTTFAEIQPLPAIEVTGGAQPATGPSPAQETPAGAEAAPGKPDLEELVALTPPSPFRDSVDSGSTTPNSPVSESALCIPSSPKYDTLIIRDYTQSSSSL

What was measured:
[1] = target: inositol trisphosphate receptor (rat or mouse) (UniProt P29994); test: co-immunoprecipitation from cerebellum
[2] = target: mGluR1α (native, rat cerebellum extracts) (rat) (UniProt P23385); test: co-immunoprecipitation from adult rat cerebellum
[3] = target: inositol trisphosphate receptor (rat or mouse) (UniProt P29994); test: co-immunoprecipitation from cerebellum (CHAPS extract)
[4] = target: T1, Homer 3 (native, rat brain extracts) (rat) (UniProt Q9Z2X5); test: co-immunoprecipitation from cerebellum
T1 sequence (looked up): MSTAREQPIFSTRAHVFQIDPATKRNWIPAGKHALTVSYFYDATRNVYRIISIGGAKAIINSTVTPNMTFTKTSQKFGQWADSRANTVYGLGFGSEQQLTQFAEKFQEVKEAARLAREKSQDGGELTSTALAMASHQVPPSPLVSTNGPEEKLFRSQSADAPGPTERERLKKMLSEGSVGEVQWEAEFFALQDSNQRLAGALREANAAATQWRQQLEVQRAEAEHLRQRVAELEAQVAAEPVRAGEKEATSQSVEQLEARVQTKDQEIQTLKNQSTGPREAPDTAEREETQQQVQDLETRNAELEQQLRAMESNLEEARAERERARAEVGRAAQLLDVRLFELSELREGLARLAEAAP

[5] = target: mGluR5 (native, mouse forebrain extracts) (mouse) (UniProt Q3UVX5); test: co-immunoprecipitation from wild type mouse forebrain
[6] = target: mGluR5 (native, mouse forebrain extracts) (mouse), Q3UVX5; test: co-immunoprecipitation from mouse forebrain; similar in wild type and Homer 1a transgenic mice; conditions: remark: other sources report otherwise

B3: Homer 1b/c (native, mouse forebrain extracts) (protein, UniProt Q9Z2Y3 2-366, looked up)
chain: GEQPIFSTRAHVFQIDPNTKKNWVPTSKHAVTVSYFYDSTRNVYRIISLDGSKAIINSTITPNMTFTKTSQKFGQWADSRANTVYGLGFSSEHHLSKFAEKFQEFKEAARLAKEKSQEKMELTSTPSQESAGGDLQSPLTPESINGTDDERTPDVTQNSEPRAEPTQNALPFPHSAGDRTQALSHASSAISKHWEAELATLKGNNAKLTAALLESTANVKQWKQQLAAYQEEAERLHKRVTELECVSSQANAVHSHKTELNQTVQELEETLKVKEEEIERLKQEIDNARELQEQRDSLTQKLQEVEIRNKDLEGQLSDLEQRLEKSQNEQEAFRSNLKTLLEILDGKIFELTELRDNLAKLLECS
binding [5]: binds

B4: Homer 2a/b (native, rat brain extracts) (protein, UniProt O88801 1-354, looked up)
chain: MGEQPIFTTRAHVFQIDPSTKKNWVPASKQAVTVSYFYDVTRNSYRIISVDGAKVIINSTITPNMTFTKTSQKFGQWADSRANTVFGLGFSSEQQLTKFAEKFQEVREAARLARDKSQEKIETSSNHSQESGCETPSSTQASSVNGTDDEKASHASPADTHLKSENDKLKIALTQSAANVKKWEIELQTLRESNARLTTALQESAASVEQWKRQFSICRDENDRLRSKIEELEEQCGEINREKEKNTQLKRRIEELESEVREKEMELKDLRKQSEIIPQLMSECEYVSEKLEAAERDNQNLEDKVRSLKTDIEESKYRQRHLKGELKSFLEVLDGKIDDLHDFRRGLSKLGTDN
binding [1]: binds
binding [2]: binds
binding [3]: binds

Other lines, results leading:

binding [1]: binds
binding [2]: binds
binding [3]: binds
B1: Homer 3 (native, rat brain extracts) (protein, UniProt Q9Z2X5 1-358, looked up)
chain: T1 sequence (looked up)

binding [4]: binds
binding [1]: binds
binding [2]: binds
binding [3]: binds
B2: Homer 1b/c (native, rat brain extracts) (protein, UniProt Q9Z214 2-366, looked up)
chain: B3 chain with T166A, P173S, A182G, N261S, D318E, N328S, E331D

binding [6]: binds
B5: Homer 2a/b (native, mouse forebrain extracts), Q9QWW1 1-354 (protein, UniProt Q9QWW1 1-354, looked up)
chain: B4 chain with Q94L, I121T, I185M, G237S, E262D
